Source: paper PMC10688342
For at least one entry, the source does not settle the construct or the ends of the probe. Results from cells or extracts need not show a direct contact. At least one verdict was read from the data and is not stated in words by the source. For part of these data: Tags and fusion partners may be left off the protein sequences shown.

Sequences of proteins named here, by UniProt entry; tags and fusion partners are left off.
UniProt P25490, whole entry: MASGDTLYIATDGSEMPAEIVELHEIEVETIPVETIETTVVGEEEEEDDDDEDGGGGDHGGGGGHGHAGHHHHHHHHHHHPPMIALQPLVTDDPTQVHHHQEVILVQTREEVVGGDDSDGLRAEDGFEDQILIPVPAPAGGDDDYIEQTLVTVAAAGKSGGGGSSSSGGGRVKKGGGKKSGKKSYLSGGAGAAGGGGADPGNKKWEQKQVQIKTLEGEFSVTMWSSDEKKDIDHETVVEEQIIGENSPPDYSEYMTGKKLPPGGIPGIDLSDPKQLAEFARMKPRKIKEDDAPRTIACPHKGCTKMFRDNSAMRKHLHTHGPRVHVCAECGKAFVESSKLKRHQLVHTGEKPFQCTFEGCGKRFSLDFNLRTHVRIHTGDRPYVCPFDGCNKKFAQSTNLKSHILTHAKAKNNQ

Experiments:
Assay in all cases: EMSA supershift
Settings in all cases: LightShift Chemiluminescent EMSA kit 1x binding buffer, poly(dI-dC), 6% native PAGE, pH and temperature not stated, label: 5'-biotin (probe), unlabeled as cold competitor
GATA2 = molecular target: T1, GATA2 (UniProt P23769)
T1 sequence (looked up, limits assumed): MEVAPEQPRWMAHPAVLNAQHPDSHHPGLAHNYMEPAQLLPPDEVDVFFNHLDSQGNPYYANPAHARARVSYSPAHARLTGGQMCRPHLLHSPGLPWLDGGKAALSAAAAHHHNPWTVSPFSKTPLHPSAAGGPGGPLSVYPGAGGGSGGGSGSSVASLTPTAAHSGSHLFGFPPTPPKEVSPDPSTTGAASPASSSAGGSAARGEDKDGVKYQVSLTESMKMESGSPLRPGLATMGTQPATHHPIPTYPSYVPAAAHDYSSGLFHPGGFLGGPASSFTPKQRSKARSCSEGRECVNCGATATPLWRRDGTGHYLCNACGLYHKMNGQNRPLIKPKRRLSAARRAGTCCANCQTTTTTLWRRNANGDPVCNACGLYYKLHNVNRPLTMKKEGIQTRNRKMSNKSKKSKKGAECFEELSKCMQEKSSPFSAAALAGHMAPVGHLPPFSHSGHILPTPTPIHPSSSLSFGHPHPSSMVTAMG

YY1 = YY1 (UniProt P25490)
ETS1 = molecular target: T2, ETS1 (UniProt P14921)
T2 sequence (looked up, limits assumed): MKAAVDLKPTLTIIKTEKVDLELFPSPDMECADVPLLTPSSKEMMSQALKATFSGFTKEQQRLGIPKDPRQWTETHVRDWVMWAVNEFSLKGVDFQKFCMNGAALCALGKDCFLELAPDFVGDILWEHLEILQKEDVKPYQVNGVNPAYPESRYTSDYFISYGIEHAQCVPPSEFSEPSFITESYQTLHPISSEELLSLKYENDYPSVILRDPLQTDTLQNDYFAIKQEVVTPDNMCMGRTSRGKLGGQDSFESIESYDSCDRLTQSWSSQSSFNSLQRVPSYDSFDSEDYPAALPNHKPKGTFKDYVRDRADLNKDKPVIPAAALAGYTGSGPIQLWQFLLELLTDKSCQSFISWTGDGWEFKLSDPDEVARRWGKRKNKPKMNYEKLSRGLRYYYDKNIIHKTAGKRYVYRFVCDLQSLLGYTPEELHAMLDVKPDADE

[1] = HBDSP-transfected HepG2 nuclear extract, protein in an extract
[2] = HepG2 nuclear extract, protein in an …

| Sequence | binding result (GATA2; [1]) | binding result (GATA2; [2]) | binding result (YY1; [1]) | binding result (YY1; [2]) | other results |
| --- | --- | --- | --- | --- | --- |
| AAATCTTATCAGAGTGATAAGGGTT (double strand) [GATA2-2 probe (BS2)] | binds | binds | – | – | – |
| AAATAAGATGGTGTGATATAAAGTA (double strand) [GATA2-3 probe (BS3)] | binds | binds | – | – | – |
| AAGGCTTACGTTTCCATGTACTGAA (double strand) [YY1-2 probe (BS2)] | – | – | binds | binds | – |
| TGCTACCCAGCACTGATATAGGCAC (double strand) [GATA2-1 probe (BS1)] | binds | binds | – | – | – |
| AGGAGATTAAATAAGATGGTGTGAT (double strand) [YY1-1 probe (BS1)] | – | – | binds | binds | – |
| AAGGCTTACGTTTCCATGTACTGAA (double strand) [ETS1 probe] | – | – | – | – | binding result (ETS1; [1]): binds; binding result (ETS1; [2]): binds |
